Source: PubChem BioAssay AID1259308 (NCATS, 2017)
The deposit covers about 59,000 reagents; below is a random part of them. Of all reagents, about 1,510 (2.6%) are marked active. 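Calls use total luciferase alone and ignore viability, so some active siRNAs may act by altering cell number.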 Reagents against one gene are numbered here. Further read-outs or replicates are left out here.

Aim: 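Candidate targets for better recombinant protein yield in mammalian cells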 (primary screen)
Cells: human HEK293 embryonic kidney cells stably expressing firefly luciferase (HEK-CMV-Luc2-Hygro)
Knock-down reagent: single siRNA against human genes, 0.8 pmol siRNA per well
Timing: 72 h
Measured: 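Luciferase light (ONE-Glo) measured on one replicate plate set and viability (CellTiter-Glo) on the other, scaled to a negative control siRNA, with robust z-scores and luciferase per cell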
Direction: total luciferase, z-score and total luciferase, % of control: higher = more reporter protein produced
Hit rule: 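An siRNA counts as active if its total luciferase robust z-score exceeds 3; genes with two or more such siRNAs out of three were retested with fresh siRNAs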
Calls: active = raised luciferase; inactive = no rise

{"gene knocked down": "BTC (betacellulin)", "reagent": 1, "total luciferase, z-score": -0.265, "total luciferase, % of control": 76.6, "Outcome": "inactive"}
{"gene knocked down": "BTC (betacellulin)", "reagent": 2, "total luciferase, z-score": -0.644, "total luciferase, % of control": 69.1, "Outcome": "inactive"}
{"gene knocked down": "BTC (betacellulin)", "reagent": 3, "total luciferase, z-score": 0.569, "total luciferase, % of control": 93.2, "Outcome": "inactive"}
{"gene knocked down": "SACK1E (scaffolding CK1 anchoring protein E)", "reagent": 1, "total luciferase, z-score": 0.945, "total luciferase, % of control": 101, "Outcome": "inactive"}
{"gene knocked down": "SACK1E (scaffolding CK1 anchoring protein E)", "reagent": 2, "total luciferase, z-score": -0.739, "total luciferase, % of control": 67.2, "Outcome": "inactive"}
{"gene knocked down": "SACK1E (scaffolding CK1 anchoring protein E)", "reagent": 3, "total luciferase, z-score": 0.42, "total luciferase, % of control": 90.2, "Outcome": "inactive"}
{"gene knocked down": "COL8A2 (collagen type VIII alpha 2 chain)", "reagent": 1, "total luciferase, z-score": 2.02, "total luciferase, % of control": 122, "Outcome": "inactive"}
{"gene knocked down": "COL8A2 (collagen type VIII alpha 2 chain)", "reagent": 2, "total luciferase, z-score": -1.64, "total luciferase, % of control": 49.2, "Outcome": "inactive"}
{"gene knocked down": "COL8A2 (collagen type VIII alpha 2 chain)", "reagent": 3, "total luciferase, z-score": 2.94, "total luciferase, % of control": 140, "Outcome": "inactive"}
{"gene knocked down": "MYH10 (myosin heavy chain 10)", "reagent": 1, "total luciferase, z-score": 0.554, "total luciferase, % of control": 92.9, "Outcome": "inactive"}
{"gene knocked down": "MYH10 (myosin heavy chain 10)", "reagent": 2, "total luciferase, z-score": -0.436, "total luciferase, % of control": 73.2, "Outcome": "inactive"}
{"gene knocked down": "MYH10 (myosin heavy chain 10)", "reagent": 3, "total luciferase, z-score": 0.864, "total luciferase, % of control": 99.1, "Outcome": "inactive"}
{"gene knocked down": "ACTL10 (actin like 10)", "reagent": 1, "total luciferase, z-score": 0.194, "total luciferase, % of control": 85.7, "Outcome": "inactive"}
{"gene knocked down": "ACTL10 (actin like 10)", "reagent": 2, "total luciferase, z-score": 1.35, "total luciferase, % of control": 109, "Outcome": "inactive"}
{"gene knocked down": "ACTL10 (actin like 10)", "reagent": 3, "total luciferase, z-score": -1.27, "total luciferase, % of control": 56.7, "Outcome": "inactive"}
{"gene knocked down": "KLHL7 (kelch like family member 7)", "reagent": 1, "total luciferase, z-score": -0.665, "total luciferase, % of control": 68.7, "Outcome": "inactive"}
{"gene knocked down": "KLHL7 (kelch like family member 7)", "reagent": 2, "total luciferase, z-score": 2.55, "total luciferase, % of control": 133, "Outcome": "inactive"}
{"gene knocked down": "KLHL7 (kelch like family member 7)", "reagent": 3, "total luciferase, z-score": -1.09, "total luciferase, % of control": 60.3, "Outcome": "inactive"}
{"gene knocked down": "GJB7 (gap junction protein beta 7)", "reagent": 1, "total luciferase, z-score": 0.121, "total luciferase, % of control": 84.3, "Outcome": "inactive"}
{"gene knocked down": "GJB7 (gap junction protein beta 7)", "reagent": 2, "total luciferase, z-score": -0.245, "total luciferase, % of control": 77, "Outcome": "inactive"}
{"gene knocked down": "GJB7 (gap junction protein beta 7)", "reagent": 3, "total luciferase, z-score": 1.56, "total luciferase, % of control": 113, "Outcome": "inactive"}
{"gene knocked down": "GJB7 (gap junction protein beta 7)", "reagent": 4, "total luciferase, z-score": -0.0264, "total luciferase, % of control": 81.4, "Outcome": "inactive"}
{"gene knocked down": "GJB7 (gap junction protein beta 7)", "reagent": 5, "total luciferase, z-score": 1.46, "total luciferase, % of control": 111, "Outcome": "inactive"}
{"gene knocked down": "GJB7 (gap junction protein beta 7)", "reagent": 6, "total luciferase, z-score": 0.253, "total luciferase, % of control": 86.9, "Outcome": "inactive"}
{"gene knocked down": "OCSTAMP (osteoclast stimulatory transmembrane protein)", "reagent": 1, "total luciferase, z-score": 0.902, "total luciferase, % of control": 99.8, "Outcome": "inactive"}
{"gene knocked down": "OCSTAMP (osteoclast stimulatory transmembrane protein)", "reagent": 2, "total luciferase, z-score": 0.675, "total luciferase, % of control": 95.3, "Outcome": "inactive"}
{"gene knocked down": "OCSTAMP (osteoclast stimulatory transmembrane protein)", "reagent": 3, "total luciferase, z-score": 0.585, "total luciferase, % of control": 93.5, "Outcome": "inactive"}
{"gene knocked down": "CALCRL (calcitonin receptor like receptor)", "reagent": 1, "total luciferase, z-score": -0.641, "total luciferase, % of control": 69.1, "Outcome": "inactive"}
{"gene knocked down": "CALCRL (calcitonin receptor like receptor)", "reagent": 2, "total luciferase, z-score": 2.49, "total luciferase, % of control": 131, "Outcome": "inactive"}
{"gene knocked down": "CALCRL (calcitonin receptor like receptor)", "reagent": 3, "total luciferase, z-score": -2.02, "total luciferase, % of control": 41.8, "Outcome": "inactive"}
{"gene knocked down": "COL20A1 (collagen type XX alpha 1 chain)", "reagent": 1, "total luciferase, z-score": 1.11, "total luciferase, % of control": 104, "Outcome": "inactive"}
{"gene knocked down": "COL20A1 (collagen type XX alpha 1 chain)", "reagent": 2, "total luciferase, z-score": -0.569, "total luciferase, % of control": 70.6, "Outcome": "inactive"}
{"gene knocked down": "COL20A1 (collagen type XX alpha 1 chain)", "reagent": 3, "total luciferase, z-score": 0.591, "total luciferase, % of control": 93.6, "Outcome": "inactive"}

A run of entries of the results above:
{"gene knocked down": "CALCRL (calcitonin receptor like receptor)", "reagent": 3, "total luciferase, z-score": -2.02, "total luciferase, % of control": 41.8, "Outcome": "inactive"}
{"gene knocked down": "COL20A1 (collagen type XX alpha 1 chain)", "reagent": 1, "total luciferase, z-score": 1.11, "total luciferase, % of control": 104, "Outcome": "inactive"}
